Source: paper PMC12756398

Experiments:
[1] = target: T1, Venus-ARAP1 (full-length ArfGAP with RhoGAP domain, ankyrin repeat and PH domain 1, mouse isoform 5) (mouse) (UniProt Q4LDD4); experiment: co-IP; 293T cells transfected with Venus-ARAP1 (or Venus alone) and SNAP-Rap1; lysis in 1% Triton X, 0.1 M Tris-HCl pH 7.5, 0.1 M NaCl, 10 mM MgCl2; anti-GFP antibody 3 h at 4 °C, Protein-G sepharose 1 h; immunoblotting
T1 sequence: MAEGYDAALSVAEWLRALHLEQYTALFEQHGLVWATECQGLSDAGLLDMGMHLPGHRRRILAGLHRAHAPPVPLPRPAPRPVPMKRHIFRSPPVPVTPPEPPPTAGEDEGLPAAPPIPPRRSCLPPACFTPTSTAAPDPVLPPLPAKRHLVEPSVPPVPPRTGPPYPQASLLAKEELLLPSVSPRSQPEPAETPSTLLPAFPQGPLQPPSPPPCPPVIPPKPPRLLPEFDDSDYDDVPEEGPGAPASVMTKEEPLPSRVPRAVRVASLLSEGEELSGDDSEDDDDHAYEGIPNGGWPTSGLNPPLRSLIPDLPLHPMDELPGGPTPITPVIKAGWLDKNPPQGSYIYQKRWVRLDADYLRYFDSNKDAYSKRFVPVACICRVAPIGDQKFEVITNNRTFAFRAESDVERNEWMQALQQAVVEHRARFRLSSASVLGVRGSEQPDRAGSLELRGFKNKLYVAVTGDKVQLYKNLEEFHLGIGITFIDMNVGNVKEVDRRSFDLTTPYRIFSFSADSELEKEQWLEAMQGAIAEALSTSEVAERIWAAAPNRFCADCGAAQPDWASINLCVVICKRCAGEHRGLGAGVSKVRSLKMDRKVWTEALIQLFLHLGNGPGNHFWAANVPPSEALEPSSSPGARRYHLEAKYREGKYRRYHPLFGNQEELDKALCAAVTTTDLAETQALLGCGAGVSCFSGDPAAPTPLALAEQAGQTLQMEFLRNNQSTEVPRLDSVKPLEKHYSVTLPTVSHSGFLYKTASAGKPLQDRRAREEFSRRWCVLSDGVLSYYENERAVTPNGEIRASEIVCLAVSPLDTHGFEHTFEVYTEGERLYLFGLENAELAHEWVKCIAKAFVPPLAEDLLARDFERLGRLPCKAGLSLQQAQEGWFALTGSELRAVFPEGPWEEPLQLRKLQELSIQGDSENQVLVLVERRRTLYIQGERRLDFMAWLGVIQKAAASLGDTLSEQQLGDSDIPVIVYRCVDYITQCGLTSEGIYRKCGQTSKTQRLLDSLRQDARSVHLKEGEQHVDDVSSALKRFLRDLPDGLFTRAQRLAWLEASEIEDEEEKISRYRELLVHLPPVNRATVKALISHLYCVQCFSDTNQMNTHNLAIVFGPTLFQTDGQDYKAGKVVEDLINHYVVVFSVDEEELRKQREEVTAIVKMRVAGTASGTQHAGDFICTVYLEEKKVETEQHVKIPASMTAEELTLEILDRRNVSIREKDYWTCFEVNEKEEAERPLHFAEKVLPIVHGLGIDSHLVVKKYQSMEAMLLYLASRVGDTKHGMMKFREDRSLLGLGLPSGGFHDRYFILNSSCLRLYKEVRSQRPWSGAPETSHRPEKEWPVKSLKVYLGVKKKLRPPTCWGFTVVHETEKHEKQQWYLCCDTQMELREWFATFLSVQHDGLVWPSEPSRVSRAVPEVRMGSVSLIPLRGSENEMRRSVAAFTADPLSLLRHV

[2] = target: T2, GST-fused RA domain of ARAP1 (aa 1179-1262) (mouse) (UniProt Q4LDD4); experiment: pull-down; GST, GST-RA or GST-RA-PH held on glutathione Sepharose 4B beads; lysates of 293T cells transfected with SNAP-tagged GTPases (1% Triton X-100, 0.1 M Tris-HCl pH 7.5, 0.1 M NaCl, 10 mM MgCl2); 4 °C, 1 h; immunoblotting; only the target purified
T2 sequence: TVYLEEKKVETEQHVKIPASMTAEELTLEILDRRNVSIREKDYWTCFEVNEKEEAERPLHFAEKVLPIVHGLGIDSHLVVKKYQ

[3] = target: T3, GST-fused RA-PH domains of ARAP1 (aa 1179-1452) (mouse) (UniProt Q4LDD4); experiment: as above
T3 sequence: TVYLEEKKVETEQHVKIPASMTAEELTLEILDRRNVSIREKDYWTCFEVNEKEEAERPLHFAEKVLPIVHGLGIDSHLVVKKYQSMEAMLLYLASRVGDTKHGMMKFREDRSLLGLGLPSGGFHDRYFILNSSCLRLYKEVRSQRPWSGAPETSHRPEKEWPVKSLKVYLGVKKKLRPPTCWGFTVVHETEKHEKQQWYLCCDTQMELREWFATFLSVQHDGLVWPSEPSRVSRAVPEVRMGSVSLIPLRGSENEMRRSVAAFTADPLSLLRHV

| binding [1] | binding [2] | binding [3] | Substance |
| --- | --- | --- | --- |
| binds |  |  | SNAP-tagged wild-type Rap1 |
|  | binds | binds | SNAP-tagged Rap1N17 (inactive form of Rap1) |
|  | binds | binds | SNAP-tagged Rap1V12 (active form of Rap1) |

No constants are given. Whether binding was seen depends on the method and setting. In cells and extracts the contact can be indirect. Binding can be weak; no strength is given. For some assays here: Where a sequence is shown, tags or fusion partners need not be part of it.
